Measured values published in PMC12463105, “NSP7 Molecular Degrader Attenuates Coronaviral Infection Through the β‐TrCP1/FBXO5 Axis” (Advanced Science, 2025).
No constants are given. Whether binding was seen depends on the method and setting. In cells and extracts the contact can be indirect. Some entries that bind do so weakly or less than the wild type. Sequences can lack the tags named with a protein.

By UniProt entry, the sequences of proteins in these tests, tags left out.
UniProt Q9Y297: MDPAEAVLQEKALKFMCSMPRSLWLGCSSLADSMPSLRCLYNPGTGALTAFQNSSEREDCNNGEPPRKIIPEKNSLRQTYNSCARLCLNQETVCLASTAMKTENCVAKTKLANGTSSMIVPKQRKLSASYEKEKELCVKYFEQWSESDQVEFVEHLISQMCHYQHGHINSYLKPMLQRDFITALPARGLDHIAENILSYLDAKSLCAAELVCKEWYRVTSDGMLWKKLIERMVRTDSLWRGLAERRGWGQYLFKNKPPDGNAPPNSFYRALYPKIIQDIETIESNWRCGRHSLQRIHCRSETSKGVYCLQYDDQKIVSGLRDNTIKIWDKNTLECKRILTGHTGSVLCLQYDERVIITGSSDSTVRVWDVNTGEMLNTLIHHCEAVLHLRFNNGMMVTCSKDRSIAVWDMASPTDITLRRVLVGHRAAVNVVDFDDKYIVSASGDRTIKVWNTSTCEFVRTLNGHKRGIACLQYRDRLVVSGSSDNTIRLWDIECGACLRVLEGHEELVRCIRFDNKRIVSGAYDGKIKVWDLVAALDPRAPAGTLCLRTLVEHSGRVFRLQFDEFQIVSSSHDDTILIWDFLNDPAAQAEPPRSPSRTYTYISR

Target: T1, HA‐FBXO5 (UniProt Q9UKT4)
T1 sequence: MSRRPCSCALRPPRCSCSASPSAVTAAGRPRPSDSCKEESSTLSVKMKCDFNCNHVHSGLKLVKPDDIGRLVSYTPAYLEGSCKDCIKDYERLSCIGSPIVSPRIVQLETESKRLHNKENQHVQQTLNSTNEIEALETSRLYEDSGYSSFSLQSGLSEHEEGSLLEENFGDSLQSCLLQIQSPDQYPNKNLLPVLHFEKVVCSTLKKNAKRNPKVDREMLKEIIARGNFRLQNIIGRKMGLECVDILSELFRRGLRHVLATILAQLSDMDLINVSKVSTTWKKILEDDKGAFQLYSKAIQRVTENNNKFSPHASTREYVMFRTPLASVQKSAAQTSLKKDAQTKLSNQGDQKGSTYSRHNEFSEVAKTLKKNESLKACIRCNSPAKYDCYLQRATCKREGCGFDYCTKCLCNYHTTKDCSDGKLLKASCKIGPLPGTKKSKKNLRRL
Test: pull-down; HA‐FBXO5 pulled down from transfected BEAS‐2B lysate with HA‐tag magnetic beads, IP lysis buffer, 4 °C, 16 h; immunoblotting; also with the TAF1 inhibitor BAY‐299 or with BC24877 for 24 h

binding: binds
Substance: β‐TrCP1 (from UniProt Q9Y297 1-605)
